Assay results reported in PubChem BioAssay AID2685 (National Center for Advancing Translational Sciences (NCATS), 2010).
This is one part of the list. The main result of the screen is listed elsewhere. These columns were measured beside it and carry no call. Compounds called inactive in the main read-out are mostly missing here. The note in brackets gives the kind of curve behind each potency; many fits are weak.

Experiment: qHTS Assay for Lipid Storage Modulators in Drosophila S3 Cells;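 for cell number change: cells counted by Cell Tracker Red CMTPX staining in the red channel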
Settings: BODIPY lipid droplet fluorescence, 18-24 h; for cell number change: measured here: cell count max response, cells fed with added oleic acid
Method in brief: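 Drosophila S3 cells loaded with oleic acid (400 uM, as added) and compounds at several concentrations; lipid droplets imaged by 488-nm laser-scanning cytometry, 500–530 nm intensity and object ratio to cell channel. Percent activity normalized to 20 uM Triacsin C.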

[1] = measured here: cell number channel AC50, cells fed with added oleic acid
[2] = measured here: lipid fluorescence (Fed channel) AC50, cells fed with added oleic acid

SMILES | cell number change [%] | AC50 [1] | AC50 [2]
Cc1ccc(C(=O)Nc2cccc(C(=O)N3CCOCC3)c2)cc1 | 19.6 | 0.00461 µM [rising, full curve, poor fit] | 
C/C(=N\NC(=O)c1ccc2c(c1)OCO2)c1ccc(O)cc1 | -7.66 |  | 6.51 µM [falling, single point]
N#C/C(=C\c1cn(CCOc2ccccc2F)c2ccccc12)C(=O)NCc1cccs1 | 4.49 |  | 1.03 µM [rising, full curve, poor fit]
CSc1nnc(NC(=O)c2ccc(C)c(S(=O)(=O)N3CCOCC3)c2)s1 | -8.89 |  | 3.66 µM [falling, single point]
CCN1CC=C2C(C#N)=C(N)C(C#N)(C#N)C(CCc3ccccc3)C2C1 (stereo not drawn) | -6.29 |  | 0.103 µM [rising, full curve, poor fit]
COc1ccccc1CN1CCC(CNS(=O)(=O)c2cc(-c3cc(C)no3)ccc2C)CC1 | 19.9 |  | 14.6 µM [rising, partial curve]
N#Cc1cc(-c2cccc(Cl)c2)c[nH]c1=O | -51.6 | 29.1 µM [falling, single point] | 25.9 µM [falling, single point]
C=CCSc1nc(Cc2ccc(Cl)cc2)nc2ccccc12 | -14 |  | 
CC(C)[C@H](NC(=O)N1CCn2c1nc1ccccc12)C(=O)NC1CC1 |  |  | 29.1 µM [rising, single point]
CC1(C)Cc2nc3oc4c(SCC(N)=O)ncnc4c3cc2CO1 | -10.1 |  | 
CC(C)(C)NC(=O)CN(Cc1ccc2c(c1)OCO2)C(=O)CNC(=O)c1cccs1 | -55.7 | 18.4 µM [falling, single point] | 23.1 µM [falling, partial curve, poor fit]
O=C(c1cccs1)N(Cc1ccco1)Cc1cc2ccccc2[nH]c1=O | -26.3 | 0.82 µM [falling, full curve] | 0.0517 µM [falling, full curve, poor fit]
COc1ccc(OC)c(S(=O)(=O)NC(C)c2ccc(-n3ccnc3)cc2)c1 (stereo not drawn) | -47.2 | 29.1 µM [falling, single point] | 25.9 µM [falling, partial curve]
Cc1cc(=O)[nH]c(N/N=C/c2ccc(C)o2)n1 | 33 | 23.1 µM [rising, single point] | 23.1 µM [rising, single point]
Cc1sc2ncn(-n3c(C)ccc3C)c(=O)c2c1C | 0.13 |  | 3.26 µM [falling, single point]
COc1ccc(C(=O)c2c3ccccc3[n+]([O-])n2Cc2ccc(C(N)=O)cc2)cc1 | -14 |  | 6.51 µM [falling, single point]
CC(=O)N1c2ccc(S(=O)(=O)N3CCCC3)cc2CC1C(=O)NC(C)C (stereo not drawn) | 16.1 |  | 29.1 µM [rising, single point]
O=C(NCc1ccccc1)C1(CC2CC(c3ccccc3)=NO2)CCNCC1 (stereo not drawn) | -11.6 |  | 0.116 µM [rising, single point]
Cc1ccc(C2CC(c3cccs3)=NN2C(=O)c2ccc(Br)o2)cc1 (stereo not drawn) | -12.4 |  | 29.1 µM [falling, single point]
O=C(Nc1nnc(-c2ccc(Br)cc2)o1)c1cccc(N2C(=O)CCC2=O)c1 |  |  | 0.00651 µM [rising, full curve, poor fit]
Cc1ccc(C2C(C#N)=C(N)SC(N)=C2C#N)o1 | -3.7 |  | 

Rewritten as comma-separated lines: 3 of the compounds above.
SMILES,cell number change [%],AC50 [1],AC50 [2]
CC(C)[C@H](NC(=O)N1CCn2c1nc1ccccc12)C(=O)NC1CC1,,,"29.1 µM [rising, single point]"
CC1(C)Cc2nc3oc4c(SCC(N)=O)ncnc4c3cc2CO1,-10.1,,
CC(C)(C)NC(=O)CN(Cc1ccc2c(c1)OCO2)C(=O)CNC(=O)c1cccs1,-55.7,"18.4 µM [falling, single point]","23.1 µM [falling, partial curve, poor fit]"

Remaining list, next part:

SMILES | cell number change [%] | AC50 [1] | AC50 [2]
COc1cccc(-c2nc(CS(=O)(=O)CC(=O)NCCc3ccccc3)c(C)o2)c1 | 30.3 | 0.231 µM [rising, full curve, poor fit] | 
CCN(CC)C(=O)C(Sc1ccccc1)c1ccccc1 (stereo not drawn) | -16.2 | 0.731 µM [falling, full curve] | 3.26 µM [falling, full curve]
CCCC(=O)Nc1ccc(C(=O)Nc2cccc(OC)c2)cc1 | 5.19 |  | 0.731 µM [falling, single point]
COc1ccc(-c2cc(C)no2)cc1S(=O)(=O)Nc1ccc(NC(C)=O)cc1 | -39.8 | 0.146 µM [falling, full curve, poor fit] | 0.58 µM [falling, single point]
NC(=O)Cc1ccc2sc(-c3ccccc3)nc2c1 | 0.706 |  | 29.1 µM [rising, partial curve]
C/C(O)=C\c1nc(=O)c2c(C)cc(C)nc2n1-c1ccccc1 | 8.52 | 2.06 µM [rising, single point] | 
CC(=O)NCCNC(=O)C1CCCCN1S(=O)(=O)c1ccccc1 (stereo not drawn) | -111 | 29.1 µM [falling, single point] | 
O=C(CSc1nnc(-c2ccccc2F)o1)OCc1ccccc1 | -22.7 |  | 0.184 µM [falling, full curve]
CCCSc1nc2c(cnn2-c2ccc(Cl)cc2)c(=O)[nH]1 |  |  | 1.03 µM [rising, full curve]
Cc1cc(NC(=O)Cn2nnc(-c3ccccc3N)n2)no1 | 4.61 |  | 29.1 µM [rising, single point]
Cc1ccc(NC(=O)C(Nc2cccc(C)c2)c2ccccc2)cc1 (stereo not drawn) |  |  | 1.46 µM [rising, partial curve, poor fit]
Cc1c(N(C(=O)c2cc(=O)[nH]c3ccccc23)C(C)C)c(=O)n(-c2ccccc2)n1C | -25 |  | 0.00651 µM [falling, full curve, poor fit]
O=C(CSc1nnc(CNc2ccc(F)cc2)o1)OC1CCCCC1 | -4.75 |  | 
COC1(c2cc(-c3ccccc3)nc(N)n2)CCCCC1 | 22.7 | 0.0058 µM [rising, full curve, poor fit] | 29.1 µM [rising, single point]
c1ccc2c(-c3nc4ncccc4o3)cccc2c1 | 0.919 |  | 6.51 µM [rising, partial curve, poor fit]
O=C(Nc1cccnc1)OC1CCCCC1 | 42.1 | 3.66 µM [rising, full curve] | 
O=C(NNC(=O)c1cccs1)c1ccc(Br)cc1 | 8.26 |  | 
Cc1ccc(NC(=O)C(C)N2C(=O)c3ccccc3C2=O)nc1 (stereo not drawn) | -5.88 | 0.58 µM [falling, full curve] | 4.11 µM [falling, partial curve]
Cc1ccc(C(C(=O)NC2CCCC2)N(Cc2ccccc2)C(=O)c2csnn2)o1 (stereo not drawn) | -32.4 | 23.1 µM [falling, single point] | 
N#Cc1ccc(COc2ccc(CCO)cc2-n2nc3ccccc3n2)cc1 | 0.0678 |  | 
Cc1cccc(NC(=O)Cn2c(=O)n(CCc3c[nH]c4ccccc34)c(=O)c3cccnc32)c1 | -15 |  | 0.58 µM [rising, full curve]

SMILES | cell number change [%] | AC50 [1] | AC50 [2]
CSCC[C@@H](C(=O)O)N1Cc2ccccc2C1=O | 22.5 |  | 
O=C(Nc1cccc(O)c1)c1cnn2cccnc12 | 58.7 |  | 
CCOc1ccc(-c2cc(C(=O)NN)[nH]n2)cc1 | -3.61 |  | 1.84 µM [rising, full curve]
COc1ccc(S(=O)(=O)N(CC(=O)O)c2ccccc2)cc1 | -27.7 |  | 0.116 µM [falling, full curve, poor fit]
CCCn1cnc2cc(NCc3cccc(OC)c3O)ccc21 | -22.2 | 0.116 µM [falling, full curve, poor fit] | 0.00651 µM [falling, full curve, poor fit]
COc1ccc(OCC(O)CNC(=O)Nc2ccc(F)cc2)cc1 (stereo not drawn) | -13.1 |  | 25.9 µM [falling, single point]
Cc1ccccc1CC1(CO)CCCN(C(=O)CCC(F)(F)F)C1 (stereo not drawn) |  |  | 6.51 µM [falling, single point]
O=C(O)c1cccc(-c2noc(-c3cccc(Cl)c3)n2)c1 | -0.906 |  | 
COc1ccccc1CNc1ccc(C(=O)O)cc1 | 2.53 |  | 
CCOC(=O)N1CCN(C2CC(=O)N(c3ccc(C)cc3)C2=O)CC1 (stereo not drawn) | 5.86 |  | 
Cc1ccc(C)c(OCCCCN2CCCCC2)c1 | -10.5 |  | 
Cc1c(Cl)ccc2c1NC(=O)[C@]21N[C@@H](CCC(N)=O)[C@H]2C(=O)N(c3ccc(F)cc3)C(=O)[C@H]21 | 2.74 | 4.11 µM [falling, single point] | 6.51 µM [falling, single point]
C=CCn1c(N)cc(=O)nc1SCC(=O)Nc1ccccc1 | 6.87 |  | 0.58 µM [falling, full curve]
O=C(COC(=O)COc1cccc(Br)c1)Nc1ccc(F)cc1F | 6.97 |  | 7.31 µM [falling, single point]
NC(=O)CSc1nccn1Cc1ccc(Cl)cc1 | -8.62 | 0.461 µM [falling, full curve, poor fit] | 0.651 µM [falling, full curve]
O=C(O)c1cc(N/N=C/c2ccc(N3CCOCC3)s2)ccc1Cl | -50 | 32.6 µM [falling, partial curve, poor fit] | 
Cc1cc(NC(=O)Cn2c(=O)n(CCCCC(=O)NC3CCN(Cc4ccccc4)CC3)c(=O)c3ccccc32)n[nH]1 | -42.7 | 25.9 µM [falling, single point] | 29.1 µM [falling, single point]
CCOC(=O)N1CCC(N2CCN(c3cc(C)ccc3C)CC2)CC1 | 84.7 | 16.4 µM [rising, partial curve] | 
CN1CCN(C(=S)c2cn(Cc3ccccc3F)c3ccccc23)CC1 | 18.3 |  | 
COc1ccc(N2CCN(C(CNC(=O)C(=O)NCC(OC)OC)c3ccco3)CC2)cc1 (stereo not drawn) | 4.28 |  | 
